In patent publication US20180353755A1, “EPIDURAL STIMULATION FOR FACILITATION OF LOCOMOTION, POSTURE, VOLUNTARY MOVEMENT, AND RECOVERY OF AUTONOMIC, SEXUAL, VASOMOTOR, AND COGNITIVE FUNCTION AFTER NEUROLOGICAL INJURY” (NeuroRecovery Technologies, Inc., priority 2014, published 2018):

Tested on: spinal neuromotor networks
Assay: Pharmacological facilitation of stepping in animals: optimal concentration of illustrative agents (Table 1)
Format: in vivo
Conditions: Route I.P.

Compound | Optimal Concentration
COc1ccccc1N1CCN(CCN(C(=O)C2CCCCC2)c2ccccn2)CC1 [Way 100.635] | 0.5 mg/kg
Clc1cccc(Cl)c1N=C1NCCN1 [Clonidine] | 0.5 mg/kg
CCc1cc(Cl)c(OC)c(C(=O)NC[C@@H]2CCCN2CC)c1O [Eticlopride] | 1.8 mg/kg
Cc1nccn1CC1CCc2c(c3ccccc3n2C)C1=O (stereo not shown) [Ondanesetron] | 3 mg/kg
COc1ccc(OC)c(C(O)C(C)N)c1 (stereo not shown) [Methoxamine] | 2.5 mg/kg
c1ccc2nc(N3CCNCC3)ccc2c1 [Quipazine] | 0.2 mg/kg
COC(=O)[C@@H]1[C@H]2C[C@H]3c4[nH]c5ccccc5c4CCN3C[C@@H]2CC[C@@H]1O [Yohimbine] | 0.4 mg/kg
O=C(c1ccc(F)cc1)C1CCN(CCn2c(=O)[nH]c3ccccc3c2=O)CC1 [Ketanserin] | 3 mg/kg
COc1cc2nc(N3CCN(C(=O)c4ccco4)CC3)nc(N)c2cc1OC [Prazosin] | 3 mg/kg
CC1CCN(CC[C@H]2CCCN2S(=O)(=O)c2cccc(O)c2)CC1 [SB 269970] | 7 mg/kg
Oc1cc2c(c(Cl)c1O)CCNCC2c1ccccc1 (stereo not shown) [SKF-81297] | 0.2 mg/kg
Cl.NC1CCN(c2cccc(Cl)n2)CC1 [SR 57227A] | 1.5 mg/kg

Same assay, conditions: Route S.C.

Compound | Optimal Concentration
CCCN(CCC)C1CCc2cccc(O)c2C1 (stereo not shown) [8-OHDPAT] | 0.05 mg/kg
